Results from article doi:10.1101/2020.09.09.290387.

By UniProt entry, the sequences of proteins in these tests, tags left out.
UniProt Q06710: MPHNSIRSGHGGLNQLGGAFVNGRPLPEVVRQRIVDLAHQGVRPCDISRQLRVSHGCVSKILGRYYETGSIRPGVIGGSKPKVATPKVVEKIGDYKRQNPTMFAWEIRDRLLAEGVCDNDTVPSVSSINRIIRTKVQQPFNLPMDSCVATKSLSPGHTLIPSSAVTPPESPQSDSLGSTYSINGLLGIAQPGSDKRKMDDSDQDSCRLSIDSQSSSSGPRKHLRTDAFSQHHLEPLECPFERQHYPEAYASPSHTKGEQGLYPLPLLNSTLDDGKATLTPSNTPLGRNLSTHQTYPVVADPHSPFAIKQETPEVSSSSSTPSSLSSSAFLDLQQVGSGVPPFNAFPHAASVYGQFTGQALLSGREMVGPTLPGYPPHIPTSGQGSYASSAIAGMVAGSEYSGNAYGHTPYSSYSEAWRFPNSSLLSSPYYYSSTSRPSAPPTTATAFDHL
UniProt Q14839: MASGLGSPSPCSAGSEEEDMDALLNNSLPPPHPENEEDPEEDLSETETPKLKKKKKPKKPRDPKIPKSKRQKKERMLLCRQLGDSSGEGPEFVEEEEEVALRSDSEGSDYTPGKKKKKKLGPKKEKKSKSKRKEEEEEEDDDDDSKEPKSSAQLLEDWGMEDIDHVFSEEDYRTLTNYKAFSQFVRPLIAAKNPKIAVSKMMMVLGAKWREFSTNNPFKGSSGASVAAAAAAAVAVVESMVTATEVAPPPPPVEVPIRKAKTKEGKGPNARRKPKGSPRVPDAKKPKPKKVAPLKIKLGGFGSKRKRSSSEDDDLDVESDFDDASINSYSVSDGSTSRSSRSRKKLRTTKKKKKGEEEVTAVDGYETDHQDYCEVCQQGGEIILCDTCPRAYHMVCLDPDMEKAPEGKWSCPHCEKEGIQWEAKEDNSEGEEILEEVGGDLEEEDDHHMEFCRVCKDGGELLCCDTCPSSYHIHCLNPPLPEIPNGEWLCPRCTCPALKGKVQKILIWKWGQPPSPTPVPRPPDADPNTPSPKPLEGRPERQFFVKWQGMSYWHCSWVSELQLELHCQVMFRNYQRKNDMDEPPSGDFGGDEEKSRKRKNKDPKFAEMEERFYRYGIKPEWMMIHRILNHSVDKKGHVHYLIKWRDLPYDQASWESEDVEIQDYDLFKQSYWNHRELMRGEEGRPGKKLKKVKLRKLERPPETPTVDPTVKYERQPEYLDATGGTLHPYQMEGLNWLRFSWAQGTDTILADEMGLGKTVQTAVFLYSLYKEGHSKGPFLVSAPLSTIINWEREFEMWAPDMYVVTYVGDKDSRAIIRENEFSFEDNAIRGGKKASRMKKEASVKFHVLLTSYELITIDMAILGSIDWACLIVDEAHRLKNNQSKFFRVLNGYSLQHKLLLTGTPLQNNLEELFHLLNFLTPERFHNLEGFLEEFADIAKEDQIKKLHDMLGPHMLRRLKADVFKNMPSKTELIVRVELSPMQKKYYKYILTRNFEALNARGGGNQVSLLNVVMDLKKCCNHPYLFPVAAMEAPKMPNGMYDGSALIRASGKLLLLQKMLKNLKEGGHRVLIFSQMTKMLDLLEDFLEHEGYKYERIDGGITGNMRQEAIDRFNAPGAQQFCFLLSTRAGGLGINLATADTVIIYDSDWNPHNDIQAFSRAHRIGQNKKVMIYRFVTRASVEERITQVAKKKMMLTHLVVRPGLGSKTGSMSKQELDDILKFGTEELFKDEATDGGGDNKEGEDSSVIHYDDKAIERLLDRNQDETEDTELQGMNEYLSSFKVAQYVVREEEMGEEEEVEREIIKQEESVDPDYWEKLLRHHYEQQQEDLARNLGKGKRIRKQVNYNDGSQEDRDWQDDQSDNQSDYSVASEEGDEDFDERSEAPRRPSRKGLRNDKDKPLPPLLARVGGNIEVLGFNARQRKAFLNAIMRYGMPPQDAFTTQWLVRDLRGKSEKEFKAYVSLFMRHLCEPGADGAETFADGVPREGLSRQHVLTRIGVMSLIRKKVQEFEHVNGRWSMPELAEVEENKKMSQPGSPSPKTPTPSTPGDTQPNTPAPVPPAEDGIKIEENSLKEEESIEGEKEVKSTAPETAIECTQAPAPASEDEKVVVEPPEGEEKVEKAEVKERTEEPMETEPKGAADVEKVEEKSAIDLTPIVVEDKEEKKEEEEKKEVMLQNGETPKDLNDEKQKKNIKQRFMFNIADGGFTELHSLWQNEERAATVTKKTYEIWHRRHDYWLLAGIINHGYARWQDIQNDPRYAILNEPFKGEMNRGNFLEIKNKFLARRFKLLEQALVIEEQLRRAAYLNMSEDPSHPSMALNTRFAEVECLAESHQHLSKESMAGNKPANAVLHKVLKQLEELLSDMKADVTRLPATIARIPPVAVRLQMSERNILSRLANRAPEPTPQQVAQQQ
UniProt Q8WXI9: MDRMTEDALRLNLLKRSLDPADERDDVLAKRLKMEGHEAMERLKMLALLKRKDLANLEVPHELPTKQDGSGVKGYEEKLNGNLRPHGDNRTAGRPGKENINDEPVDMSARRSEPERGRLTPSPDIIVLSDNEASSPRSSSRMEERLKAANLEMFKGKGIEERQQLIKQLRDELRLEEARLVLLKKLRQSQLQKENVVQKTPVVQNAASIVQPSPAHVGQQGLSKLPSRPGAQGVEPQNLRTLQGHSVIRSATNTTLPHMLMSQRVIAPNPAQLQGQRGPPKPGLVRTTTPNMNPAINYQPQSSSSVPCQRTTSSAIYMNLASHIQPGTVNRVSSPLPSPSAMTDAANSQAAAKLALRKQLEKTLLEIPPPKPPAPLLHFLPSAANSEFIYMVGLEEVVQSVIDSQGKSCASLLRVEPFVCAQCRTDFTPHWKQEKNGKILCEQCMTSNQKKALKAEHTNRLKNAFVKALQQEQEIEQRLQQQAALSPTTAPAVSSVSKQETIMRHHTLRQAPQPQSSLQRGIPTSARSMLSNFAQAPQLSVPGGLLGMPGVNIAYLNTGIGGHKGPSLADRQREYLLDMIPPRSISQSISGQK
UniProt Q13547: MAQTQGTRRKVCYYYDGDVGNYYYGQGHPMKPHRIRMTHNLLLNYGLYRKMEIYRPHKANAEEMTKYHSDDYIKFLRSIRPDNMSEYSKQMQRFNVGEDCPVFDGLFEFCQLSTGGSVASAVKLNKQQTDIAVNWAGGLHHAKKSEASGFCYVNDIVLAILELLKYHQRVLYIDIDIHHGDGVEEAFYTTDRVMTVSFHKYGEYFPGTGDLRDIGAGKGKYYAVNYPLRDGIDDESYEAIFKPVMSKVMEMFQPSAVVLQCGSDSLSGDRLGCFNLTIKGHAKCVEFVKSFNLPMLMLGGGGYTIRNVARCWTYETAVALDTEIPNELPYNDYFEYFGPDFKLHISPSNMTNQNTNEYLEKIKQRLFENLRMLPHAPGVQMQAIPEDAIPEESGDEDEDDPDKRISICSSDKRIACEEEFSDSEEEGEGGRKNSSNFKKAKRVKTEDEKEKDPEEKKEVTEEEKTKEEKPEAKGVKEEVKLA
UniProt Q9H6I2: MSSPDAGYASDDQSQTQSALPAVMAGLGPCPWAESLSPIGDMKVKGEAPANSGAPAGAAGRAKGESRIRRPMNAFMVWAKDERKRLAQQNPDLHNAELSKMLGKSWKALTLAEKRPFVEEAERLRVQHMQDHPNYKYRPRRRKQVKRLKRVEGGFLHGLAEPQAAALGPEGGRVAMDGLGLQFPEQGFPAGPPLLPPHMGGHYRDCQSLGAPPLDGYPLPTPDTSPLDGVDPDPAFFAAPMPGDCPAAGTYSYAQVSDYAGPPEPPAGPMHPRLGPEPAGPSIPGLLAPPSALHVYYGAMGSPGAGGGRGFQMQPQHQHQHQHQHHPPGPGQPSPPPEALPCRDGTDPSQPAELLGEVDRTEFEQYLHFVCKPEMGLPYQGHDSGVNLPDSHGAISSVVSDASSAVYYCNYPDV

What follows are substances tested against PAX8 (human (endogenous in FT194, FT246, FT282, OVCAR4, KURAMOCHI, OVSAHO and human tissues)) (UniProt Q06710) (assay: affinity purification with mass spectrometry).

binding, binds:
chromodomain-helicase-DNA-binding protein 4 (from UniProt Q14839 1-1912)
GATAD2B (from UniProt Q8WXI9 1-593)
histone deacetylases 1 (from UniProt Q13547 1-482)
SOX17 (from UniProt Q9H6I2 1-414)

No constants are given. Whether binding was seen depends on the method and setting. Binding seen in cells or lysates may run through a third protein. These calls come from enrichment with a bait or labelling near it, and not all partners need be listed.
